Results on 27 molecules are retold here after the supplement of paper PMC12823440, “Inhibitors supercharge kinase turnover through native proteolytic circuits” (Nature, 2025).

Structures are written as SMILES. Counter-ions that a name gives are not always drawn. Some of the results follow. Hit calls seldom repeat between salt and free forms of one compound.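 In K562 cells expressing nanoluciferase-fused kinases, luminescence was recorded at 4 h intervals between 2 and 18 h, normalized as percent of control with DMSO at 100% and a positive control at 0%. A significant (2 sigma) signal drop marks a time point as decreased. The authors' rule for a hit is not shown and takes in more than the number of time points.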

The target in one experiment is EGFR_L858R (UniProt P00533). Briefly: kinase-Nluc reporter destabilization hit call (1 = scored as downregulated) (binary); higher = compound decreases kinase abundance. The note with it: K562; 2-18 h.
Regarding `CC1=C[C@]23C(=O)[C@@H](C=C(CO)[C@@H](O)[C@]2(O)[C@H]1O)[C@H]1[C@@H](C[C@H]3C)C1(C)C` [Ingenol] (10 µM), the “kinase-Nluc reporter destabilization hit call” value was inactive: 0.
`C=C[C@H]1CN2CC[C@]3(C(=O)Nc4ccccc43)[C@@H]2C[C@@H]1/C(=C\OC)C(=O)OC` [Corynoxeine] (2 µM): the “kinase-Nluc reporter destabilization hit call” value is inactive: 0.
Consider `O=C(O)c1sc2cc(Cl)ccc2c1Cl` (10 µM), for which the “kinase-Nluc reporter destabilization hit call” value was inactive: 0.
`C[C@H]1CC[C@]2(NC1)O[C@H]1C[C@H]3[C@@H]4CC[C@H]5C[C@@H](O)CC[C@]5(C)[C@H]4CC[C@]3(C)[C@H]1[C@@H]2C` [Tomatidine (hydrochloride)] (10 µM): the “kinase-Nluc reporter destabilization hit call” value is inactive: 0.
Regarding `O=C1C=CC[C@@H]2[C@H]3CCCN4CCC[C@@H](CN12)[C@@H]34` [Sophocarpine (monohydrate)] (2.5 µM), the “kinase-Nluc reporter destabilization hit call” value is inactive: 0.
Same read-out and setting: with `Cc1n[nH]cc1-c1cc2nc([C@@H]3CC4CCN3CC4)[nH]c(=O)c2s1` [Simurosertib] (2.5 µM) the figure was inactive: 0.
On to `O=C(N[C@@H](COc1ccc2[nH]c(=O)[nH]c2c1)c1ccccc1)c1cccn(Cc2ccc(F)c(F)c2)c1=O` (2.5 µM), for which the “kinase-Nluc reporter destabilization hit call” value is inactive: 0.
With `O=C(/C=C/c1ccccc1)OC[C@H]1O[C@@H](O[C@@H]2OC=C[C@H]3[C@H](O)[C@@H]4O[C@]4(CO)[C@@H]23)[C@H](O)[C@@H](O)[C@@H]1O` [Picroside I] (10 µM), the “kinase-Nluc reporter destabilization hit call” value is inactive: 0.
For the molecule `C[C@@H]1CC[C@H]2[C@@H](C)C(=O)O[C@@H]3O[C@@]4(C)CC[C@@H]1[C@]32OO4` [Artemisinin] (10 µM), the “kinase-Nluc reporter destabilization hit call” value was inactive: 0.
Regarding `N#CC(C#N)=Cc1ccc([N+](=O)[O-])c(O)c1` (10 µM), the “kinase-Nluc reporter destabilization hit call” value is inactive: 0.
With `C[C@H](CCC(=O)O)C[C@H](C)C[C@H](C)C(=O)/C=C(\O)[C@H](C)C[C@H](C)C/C=C/[C@@H](C)[C@@H](O)[C@@H](C)[C@@H](O)C[C@@H]1CC[C@@](C)([C@H]2CC[C@@](C)([C@@H](C)O)O2)O1` [Ionomycin (calcium)] (2.5 µM), the “kinase-Nluc reporter destabilization hit call” value was inactive: 0.
Consider `CC1C(=O)OC2C(O)C34C5OC(=O)C3(OC3OC(=O)C(O)C34C(C(C)(C)C)C5O)C12O` (centres undefined) [Ginkgolide C] (10 µM), for which the “kinase-Nluc reporter destabilization hit call” value is inactive: 0.
As for `Cn1cc(C2=C(c3cn(C4CCN(Cc5ccccn5)CC4)c4ccccc34)C(=O)NC2=O)c2ccccc21` [Enzastaurin] (10 µM), the “kinase-Nluc reporter destabilization hit call” value was inactive: 0.
For `O=c1[nH]c2ccccc2n1C1CCN(Cc2ccc(-c3[nH]c4cc5ncnc5cc4nc3-c3ccccc3)cc2)CC1` [AKT inhibitor VIII] (2.5 µM), the “kinase-Nluc reporter destabilization hit call” value is inactive: 0.
On to `CCN1CCN(C(=O)Cc2ccc(Nc3ncc(F)c(Nc4ccc(C(=O)Nc5ccccc5Cl)cc4)n3)cc2)CC1` (2.5 µM), for which the “kinase-Nluc reporter destabilization hit call” value was inactive: 0.
On the same count and under the same terms, with `C=CC(=O)N[C@H]1C=C(C)c2c(-c3cnc4ccccc4c3)c3c(N)ncnc3n2C1` (10 µM) the figure was inactive: 0; with `CC(C)(C)c1cc(C=C(C#N)C#N)cc(Br)c1O` (2.5 µM), inactive: 0.
Take `CCCCNc1nc(N)c2[nH]c(=O)n(Cc3ccc(C)nc3)c2n1` (10 µM): the “kinase-Nluc reporter destabilization hit call” value was inactive: 0.
Take `C=CC(=O)Nc1ccc2[nH]c(=O)n(C3CCN(Cc4ccc(-c5nc6cc[nH]c(=O)c6cc5-c5ccccc5)cc4)CC3)c2c1` [Borussertib] (10 µM): the “kinase-Nluc reporter destabilization hit call” value is inactive: 0.
As for `COc1ccc(N(C(=O)Oc2c(C)cccc2C)c2ccnc(Nc3ccc(N4CCN(C)CC4)cc3)n2)c(OC)c1` (2.5 µM), the “kinase-Nluc reporter destabilization hit call” value was inactive: 0.
Same read-out and setting: with `COc1ccc2c(c1)[nH]c1c(C)nccc12` [Harmine] (10 µM) the figure was inactive: 0; with `O=c1cc(O)c2ccccc2o1` [4-Hydroxycoumarin] (10 µM), inactive: 0; with `CC(=O)c1c(O)c(C)c(O)c(Cc2c(O)c3c(c(C(=O)/C=C/c4ccccc4)c2O)OC(C)(C)C=C3)c1O` [Rottlerin] (2 µM), inactive: 0.
With `C/C(O)=C(\C#N)C(=O)Nc1cc(Br)ccc1Br` (10 µM), the “kinase-Nluc reporter destabilization hit call” value is inactive: 0.
Consider `Cc1ccccc1-n1c(Cn2ncc3c(N)ncnc32)nc2cccc(C)c2c1=O` (10 µM), for which the “kinase-Nluc reporter destabilization hit call” value was inactive: 0.
In the case of `COc1ccc2c(c1)/C(=C/c1cnc[nH]1)C(=O)N2` (2.5 µM), the “kinase-Nluc reporter destabilization hit call” value was inactive: 0.
Consider `O=[N+]([O-])/C=C/c1ccc2c(c1)OCO2` (2.5 µM), for which the “kinase-Nluc reporter destabilization hit call” value is inactive: 0.

Another experiment addresses EGFR_L861Q (UniProt P00533). Described as above. To be noted: K562; 2-18 h.
In the case of `CC1=C[C@]23C(=O)[C@@H](C=C(CO)[C@@H](O)[C@]2(O)[C@H]1O)[C@H]1[C@@H](C[C@H]3C)C1(C)C` [Ingenol] (10 µM), the “kinase-Nluc reporter destabilization hit call” value was inactive: 0.
Take `C=C[C@H]1CN2CC[C@]3(C(=O)Nc4ccccc43)[C@@H]2C[C@@H]1/C(=C\OC)C(=O)OC` [Corynoxeine] (2 µM): the “kinase-Nluc reporter destabilization hit call” value is inactive: 0.
Turning to `O=C(O)c1sc2cc(Cl)ccc2c1Cl` (10 µM), the “kinase-Nluc reporter destabilization hit call” value was inactive: 0.
For `C[C@H]1CC[C@]2(NC1)O[C@H]1C[C@H]3[C@@H]4CC[C@H]5C[C@@H](O)CC[C@]5(C)[C@H]4CC[C@]3(C)[C@H]1[C@@H]2C` [Tomatidine (hydrochloride)] (10 µM), the “kinase-Nluc reporter destabilization hit call” value was inactive: 0.
The same measure, in the same setting: for `O=C1C=CC[C@@H]2[C@H]3CCCN4CCC[C@@H](CN12)[C@@H]34` [Sophocarpine (monohydrate)] (2.5 µM) the value was inactive: 0; for `Cc1n[nH]cc1-c1cc2nc([C@@H]3CC4CCN3CC4)[nH]c(=O)c2s1` [Simurosertib] (2.5 µM), inactive: 0; for `O=C(N[C@@H](COc1ccc2[nH]c(=O)[nH]c2c1)c1ccccc1)c1cccn(Cc2ccc(F)c(F)c2)c1=O` (2.5 µM), inactive: 0.
As to `O=C(/C=C/c1ccccc1)OC[C@H]1O[C@@H](O[C@@H]2OC=C[C@H]3[C@H](O)[C@@H]4O[C@]4(CO)[C@@H]23)[C@H](O)[C@@H](O)[C@@H]1O` [Picroside I] (10 µM), the “kinase-Nluc reporter destabilization hit call” value is inactive: 0.
Same read-out and setting: with `C[C@@H]1CC[C@H]2[C@@H](C)C(=O)O[C@@H]3O[C@@]4(C)CC[C@@H]1[C@]32OO4` [Artemisinin] (10 µM) the figure was inactive: 0.
Turning to `N#CC(C#N)=Cc1ccc([N+](=O)[O-])c(O)c1` (10 µM), the “kinase-Nluc reporter destabilization hit call” value was inactive: 0.
Same read-out and setting: with `C[C@H](CCC(=O)O)C[C@H](C)C[C@H](C)C(=O)/C=C(\O)[C@H](C)C[C@H](C)C/C=C/[C@@H](C)[C@@H](O)[C@@H](C)[C@@H](O)C[C@@H]1CC[C@@](C)([C@H]2CC[C@@](C)([C@@H](C)O)O2)O1` [Ionomycin (calcium)] (2.5 µM) the figure was inactive: 0; with `CC1C(=O)OC2C(O)C34C5OC(=O)C3(OC3OC(=O)C(O)C34C(C(C)(C)C)C5O)C12O` (centres undefined) [Ginkgolide C] (10 µM), inactive: 0.
For `Cn1cc(C2=C(c3cn(C4CCN(Cc5ccccn5)CC4)c4ccccc34)C(=O)NC2=O)c2ccccc21` [Enzastaurin] (10 µM), the “kinase-Nluc reporter destabilization hit call” value was inactive: 0.
On the same count and under the same terms, for `O=c1[nH]c2ccccc2n1C1CCN(Cc2ccc(-c3[nH]c4cc5ncnc5cc4nc3-c3ccccc3)cc2)CC1` [AKT inhibitor VIII] (2.5 µM) the value was inactive: 0; for `CCN1CCN(C(=O)Cc2ccc(Nc3ncc(F)c(Nc4ccc(C(=O)Nc5ccccc5Cl)cc4)n3)cc2)CC1` (2.5 µM), inactive: 0; for `C=CC(=O)N[C@H]1C=C(C)c2c(-c3cnc4ccccc4c3)c3c(N)ncnc3n2C1` (10 µM), inactive: 0.
For `CC(C)(C)c1cc(C=C(C#N)C#N)cc(Br)c1O` (2.5 µM), the “kinase-Nluc reporter destabilization hit call” value is inactive: 0.
With `CCCCNc1nc(N)c2[nH]c(=O)n(Cc3ccc(C)nc3)c2n1` (10 µM), the “kinase-Nluc reporter destabilization hit call” value is inactive: 0.
Take `C=CC(=O)Nc1ccc2[nH]c(=O)n(C3CCN(Cc4ccc(-c5nc6cc[nH]c(=O)c6cc5-c5ccccc5)cc4)CC3)c2c1` [Borussertib] (10 µM): the “kinase-Nluc reporter destabilization hit call” value is inactive: 0.
Consider `COc1ccc(N(C(=O)Oc2c(C)cccc2C)c2ccnc(Nc3ccc(N4CCN(C)CC4)cc3)n2)c(OC)c1` (2.5 µM), for which the “kinase-Nluc reporter destabilization hit call” value was inactive: 0.
Still for that read-out and setting: for `COc1ccc2c(c1)[nH]c1c(C)nccc12` [Harmine] (10 µM) the value was inactive: 0.
On the same count and under the same terms, for `O=c1cc(O)c2ccccc2o1` [4-Hydroxycoumarin] (10 µM) the value was inactive: 0.
Consider `CC(=O)c1c(O)c(C)c(O)c(Cc2c(O)c3c(c(C(=O)/C=C/c4ccccc4)c2O)OC(C)(C)C=C3)c1O` [Rottlerin] (2 µM), for which the “kinase-Nluc reporter destabilization hit call” value was inactive: 0.
With `C/C(O)=C(\C#N)C(=O)Nc1cc(Br)ccc1Br` (10 µM), the “kinase-Nluc reporter destabilization hit call” value is inactive: 0.
On to `Cc1ccccc1-n1c(Cn2ncc3c(N)ncnc32)nc2cccc(C)c2c1=O` (10 µM), for which the “kinase-Nluc reporter destabilization hit call” value was inactive: 0.
With `COc1ccc2c(c1)/C(=C/c1cnc[nH]1)C(=O)N2` (2.5 µM), the “kinase-Nluc reporter destabilization hit call” value is inactive: 0.
The same measure, in the same setting: for `O=[N+]([O-])/C=C/c1ccc2c(c1)OCO2` (2.5 µM) the value was inactive: 0.
